The other results are listed elsewhere or left out.
Legend:
Assay in all cases: glycan array binding signal (z-score within array); higher = stronger binding
Settings in all cases: glycan notation: IUPAC condensed, linker removed
[1] = biological target: Neu5Ac(a2-6)Gal(b1-4)GlcNAc(b1-3)Gal(b1-4)GlcNAc(b1-3)GalNAc
How it was run: (§1)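 Columns mapping to the same glycan were averaged after glycan names were converted to IUPAC-condensed notation. The data come from 3228 arrays in the Consortium for Functional Glycomics database, limited to those with an available protein sequence. Binding is reported as a within-array Z-score averaged across arrays of one protein sequence and across linkers.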

[2] = biological target: Neu5Ac(a2-6)Gal(b1-4)GlcNAc(b1-3)Gal(b1-4)GlcNAc(b1-3)[Neu5Ac(a2-6)Gal(b1-4)GlcNAc(b1-3)Gal(b1-4)GlcNAc(b1-6)]GalNAc
How it was run: as §1

[3] = biological target: Neu5Ac(a2-6)Gal(b1-4)GlcNAc(b1-3)Gal(b1-4)GlcNAc(b1-6)[Gal(b1-3)]GalNAc
How it was run: as §1

[4] = biological target: Neu5Ac(a2-6)Gal(b1-4)GlcNAc(b1-3)Gal(b1-4)[Fuc(a1-3)]GlcNAc(b1-3)Gal(b1-4)[Fuc(a1-3)]GlcNAc
How it was run: as §1

[5] = biological target: Neu5Ac(a2-6)Gal(b1-4)GlcNAc(b1-3)GalNAc
How it was run: as §1

[6] = biological target: Neu5Ac(a2-6)Gal(b1-4)GlcNAc(b1-3)[Neu5Ac(a2-6)Gal(b1-4)GlcNAc(b1-6)]GalNAc
How it was run: as §1

[7] = biological target: Neu5Ac(a2-6)Gal(b1-4)GlcNAc(b1-6)GalNAc
How it was run: as §1

[8] = biological target: Neu5Ac(a2-6)Gal(b1-4)GlcNAc(b1-6)[Gal(b1-3)GlcNAc(b1-3)]Gal(b1-4)Glc
How it was run: as §1

[9] = biological target: Neu5Ac(a2-6)Gal(b1-4)GlcNAc(b1-6)[Gal(b1-3)]GalNAc
How it was run: as §1

[10] = biological target: Neu5Ac(a2-6)Gal(b1-4)GlcNAc6S
How it was run: as §1

[11] = biological target: Neu5Ac(a2-6)GalNAc
How it was run: as §1

[12] = biological target: Neu5Ac(a2-6)GalNAc(b1-4)GlcNAc
How it was run: as §1

[13] = biological target: Neu5Ac(a2-6)GalNAc(b1-4)GlcNAc6S
How it was run: as §1

[14] = biological target: Neu5Ac(a2-6)GlcNAc(b1-4)GlcNAc
How it was run: as §1

[15] = biological target: Neu5Ac(a2-6)GlcNAc(b1-4)GlcNAc(b1-4)GlcNAc
How it was run: as §1

[16] = biological target: Neu5Ac(a2-8)Neu5Ac
How it was run: as §1

[17] = biological target: Neu5Ac(a2-8)Neu5Ac(a2-3)Gal(b1-3)GalNAc(b1-4)[Neu5Ac(a2-3)]Gal(b1-4)Glc
How it was run: as §1

[18] = biological target: Neu5Ac(a2-8)Neu5Ac(a2-3)Gal(b1-3)GalNAc(b1-4)[Neu5Ac(a2-8)Neu5Ac(a2-3)]Gal(b1-4)Glc
How it was run: as §1

[19] = biological target: Neu5Ac(a2-8)Neu5Ac(a2-3)Gal(b1-4)Glc
How it was run: as §1

[20] = biological target: Neu5Ac(a2-8)Neu5Ac(a2-3)Gal(b1-4)GlcNAc
How it was run: as §1

[21] = biological target: Neu5Ac(a2-8)Neu5Ac(a2-3)[Gal(b1-3)GalNAc(b1-4)]Gal(b1-4)Glc
How it was run: as §1

[22] = biological target: Neu5Ac(a2-8)Neu5Ac(a2-3)[GalNAc(b1-4)]Gal(b1-4)Glc
How it was run: as §1

[23] = biological target: Neu5Ac(a2-8)Neu5Ac(a2-8)Neu5Ac
How it was run: as §1

[24] = biological target: Neu5Ac(a2-8)Neu5Ac(a2-8)Neu5Ac(a2-3)Gal(b1-4)Glc
How it was run: as §1

[25] = biological target: Neu5Ac(a2-8)Neu5Ac(a2-8)Neu5Ac(a2-3)[Gal(b1-3)GalNAc(b1-4)]Gal(b1-4)Glc
How it was run: as §1

[26] = biological target: Neu5Ac(a2-8)Neu5Ac(a2-8)Neu5Ac(a2-3)[GalNAc(b1-4)]Gal(b1-4)Glc
How it was run: as §1

[27] = biological target: Neu5Ac(a2-8)Neu5Ac(a2-8)Neu5Ac(a2-8)Neu5Ac(a2-3)[GalNAc(b1-4)]Gal(b1-4)Glc
How it was run: as §1

[28] = biological target: Neu5Ac(a2-8)Neu5Gc(a2-3)Gal(b1-4)GlcNAc
How it was run: as §1

[29] = biological target: Neu5Ac(b2-6)Gal(b1-4)GlcNAc
How it was run: as §1

[30] = biological target: Neu5Ac(b2-6)GalNAc
How it was run: as §1

[31] = biological target: Neu5Ac9Ac(a2-3)Gal(b1-4)GlcNAc
How it was run: as §1

[32] = biological target: Neu5Ac9Ac(a2-6)Gal(b1-4)GlcNAc
How it was run: as §1

[33] = biological target: Neu5Gc(a2-3)Gal(b1-3)GlcNAc
How it was run: as §1

[34] = biological target: Neu5Gc(a2-3)Gal(b1-3)[Fuc(a1-4)]GlcNAc
How it was run: as §1

[35] = biological target: Neu5Gc(a2-3)Gal(b1-4)Glc
How it was run: as §1

[36] = biological target: Neu5Gc(a2-3)Gal(b1-4)GlcNAc
How it was run: as §1

[37] = biological target: Neu5Gc(a2-3)Gal(b1-4)GlcNAc(b1-3)Gal(b1-4)GlcNAc(b1-2)Man(a1-3)[Neu5Gc(a2-3)Gal(b1-4)GlcNAc(b1-3)Gal(b1-4)GlcNAc(b1-2)Man(a1-6)]Man(b1-4)GlcNAc(b1-4)GlcNAc
How it was run: as §1

[38] = biological target: Neu5Gc(a2-3)Gal(b1-4)[Fuc(a1-3)]GlcNAc
How it was run: as §1

[39] = biological target: Neu5Gc(a2-6)Gal(b1-4)GlcNAc
How it was run: as §1

[40] = biological target: Neu5Gc(a2-6)GalNAc
How it was run: as §1

[41] = biological target: Neu5Gc(a2-8)Neu5Ac(a2-3)Gal(b1-4)GlcNAc
How it was run: as §1

[42] = biological target: Neu5Gc(a2-8)Neu5Gc(a2-3)Gal(b1-4)GlcNAc
How it was run: as §1

[43] = biological target: Neu5Gc(a2-8)Neu5Gc(a2-3)Gal(b1-4)GlcNAc(b1-3)Gal(b1-4)GlcNAc
How it was run: as §1

[44] = biological target: Neu5Gc(a2-8)Neu5Gc(a2-6)Gal(b1-4)GlcNAc
How it was run: as §1

[45] = biological target: Neu5Gc(b2-6)Gal(b1-4)GlcNAc
How it was run: as §1

B1: Pbx1CASH domain (Cryptococcus neoformans) (protein)
chain: MDETKPLWGNPRADGISLACKDSIVERNVVYDATDGAIVLFGSAGSTVKNNHVYARTRVILGGINLVDYEPWDGDYTNVKVHHNHLYALGRYFKVGIVIGPASWSDDTESVVHSASVTDNEFSGGYWGYGIVVASAKNFEVLRNKVIWDGEQGVARFSGVPGS
**Q.** What does the source list for B1?
**A.** glycan array binding signal (z-score) [1]: 1.06; glycan array binding signal (z-score) [2]: 1.28; glycan array binding signal (z-score) [3]: -0.309; glycan array binding signal (z-score) [4]: -0.977; glycan array binding signal (z-score) [5]: -0.506; glycan array binding signal (z-score) [6]: -0.543; glycan array binding signal (z-score) [7]: 1.59; glycan array binding signal (z-score) [8]: 0.559; glycan array binding signal (z-score) [9]: -0.679; glycan array binding signal (z-score) [10]: -0.597; glycan array binding signal (z-score) [11]: -0.898; glycan array binding signal (z-score) [12]: -0.673; glycan array binding signal (z-score) [13]: 0.309; glycan array binding signal (z-score) [14]: -0.681; glycan array binding signal (z-score) [15]: -0.307; glycan array binding signal (z-score) [16]: -0.314; glycan array binding signal (z-score) [17]: -0.877; glycan array binding signal (z-score) [18]: 0.658; glycan array binding signal (z-score) [19]: -0.539; glycan array binding signal (z-score) [20]: -0.081; glycan array binding signal (z-score) [21]: 0.76; glycan array binding signal (z-score) [22]: -0.908; glycan array binding signal (z-score) [23]: -0.593; glycan array binding signal (z-score) [24]: -0.652; glycan array binding signal (z-score) [25]: -0.815; glycan array binding signal (z-score) [26]: -0.174; glycan array binding signal (z-score) [27]: 1.35; glycan array binding signal (z-score) [28]: -0.353; glycan array binding signal (z-score) [29]: -0.851; glycan array binding signal (z-score) [30]: -0.772; glycan array binding signal (z-score) [31]: -0.534; glycan array binding signal (z-score) [32]: -0.845; glycan array binding signal (z-score) [33]: -0.691; glycan array binding signal (z-score) [34]: -0.469; glycan array binding signal (z-score) [35]: -0.113; glycan array binding signal (z-score) [36]: -0.444; glycan array binding signal (z-score) [37]: -0.519; glycan array binding signal (z-score) [38]: -0.398; glycan array binding signal (z-score) [39]: -0.114; glycan array binding signal (z-score) [40]: -0.031; glycan array binding signal (z-score) [41]: -0.005; glycan array binding signal (z-score) [42]: -0.561; glycan array binding signal (z-score) [43]: -0.119; glycan array binding signal (z-score) [44]: 0.346; glycan array binding signal (z-score) [45]: 2.35
